Source: publication PMC4118853, “Phage Orf Family Recombinases: Conservation of Activities and Involvement of the Central Channel in DNA Binding” (PLoS ONE, 2014)
Numbering of substitutions follows the chain as printed. For part of these data: A negative result means that nothing was seen under these conditions. Protein sequences can lack the tags named with them. For part of these data: Weaker means in comparison with the reference protein, sequence or condition of that experiment. For part of these data: For at least one entry, the source does not settle the construct or the ends of the probe. For part of these data: At least one verdict was read from the data and is not stated in words by the source.

Assays:
[1] = biological target: T1, MBP-YbcN (UniProt Q47269); test: EMSA; conditions: EMSA: 50 mM Tris-HCl pH 8.0, 5 mM EDTA (or 1 mM MgCl2), 1 mM DTT, 5% glycerol, 100 ug/ml BSA, on ice 15 min, 4% PAGE, recombinant protein, protein details: N-terminal MBP
T1 sequence (looked up, limits assumed): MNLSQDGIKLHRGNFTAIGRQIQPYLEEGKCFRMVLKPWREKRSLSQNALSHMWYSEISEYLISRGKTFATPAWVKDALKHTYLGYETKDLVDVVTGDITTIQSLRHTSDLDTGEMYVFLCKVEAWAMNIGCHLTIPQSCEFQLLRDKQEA

[2] = biological target: T2, MBP-Orf W50A (Bacteriophage lambda) (UniProt P03765); test: EMSA; conditions: EMSA: 50 mM Tris-HCl pH 8.0, 5 mM EDTA (or 1 mM MgCl2), 1 mM DTT, 5% glycerol, 100 ug/ml BSA, on ice 15 min, 4% PAGE, recombinant protein, residues 1-146, protein details: N-terminal MBP
T2 sequence (looked up): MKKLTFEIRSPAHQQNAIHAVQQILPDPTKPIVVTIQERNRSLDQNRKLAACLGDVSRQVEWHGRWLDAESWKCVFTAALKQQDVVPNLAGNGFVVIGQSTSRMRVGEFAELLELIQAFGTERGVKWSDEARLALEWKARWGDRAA

[3] = biological target: T3, MBP-Orf (Bacteriophage lambda) (UniProt P03765); test: EMSA; conditions: EMSA: 50 mM Tris-HCl pH 8.0, 5 mM EDTA (or 1 mM MgCl2), 1 mM DTT, 5% glycerol, 100 ug/ml BSA, on ice 15 min, 4% PAGE, recombinant protein, residues 1-146, protein details: N-terminal MBP
T3 sequence (looked up): T2 sequence (looked up) with A50W

[4] = biological target: T4, MBP-Orf V106E (Bacteriophage lambda) (UniProt P03765); test: EMSA; conditions: EMSA: 50 mM Tris-HCl pH 8.0, 5 mM EDTA (or 1 mM MgCl2), 1 mM DTT, 5% glycerol, 100 ug/ml BSA, on ice 15 min, 4% PAGE, recombinant protein, residues 1-146, protein details: N-terminal MBP
T4 sequence (looked up): T2 sequence (looked up) with A50W, V106E

[5] = biological target: T5, MBP-Orf Q45A (Bacteriophage lambda) (UniProt P03765); test: EMSA; conditions: EMSA: 50 mM Tris-HCl pH 8.0, 5 mM EDTA (or 1 mM MgCl2), 1 mM DTT, 5% glycerol, 100 ug/ml BSA, on ice 15 min, 4% PAGE, recombinant protein, residues 1-146, protein details: N-terminal MBP
T5 sequence (looked up): T2 sequence (looked up) with Q45A, A50W

[6] = biological target: T6, MBP-Orf K48A (Bacteriophage lambda) (UniProt P03765); test: EMSA; conditions: EMSA: 50 mM Tris-HCl pH 8.0, 5 mM EDTA (or 1 mM MgCl2), 1 mM DTT, 5% glycerol, 100 ug/ml BSA, on ice 15 min, 4% PAGE, recombinant protein, residues 1-146, protein details: N-terminal MBP
T6 sequence (looked up): T2 sequence (looked up) with K48A, A50W

[7] = biological target: T7, MBP-Orf W137A (Bacteriophage lambda) (UniProt P03765); test: EMSA; conditions: EMSA: 50 mM Tris-HCl pH 8.0, 5 mM EDTA (or 1 mM MgCl2), 1 mM DTT, 5% glycerol, 100 ug/ml BSA, on ice 15 min, recombinant protein, residues 1-146, protein details: N-terminal MBP
T7 sequence (looked up): T2 sequence (looked up) with A50W, W137A

[8] = biological target: T1, MBP-YbcN; test: fluorescence anisotropy; conditions: no significant difference from duplex control; anisotropy: 100 mM Tris-HCl pH 7.0, 10 nM DNA, temperature not stated; recombinant protein; protein details: N-terminal MBP; label: 3'-fluorescein on strand 1
[9] = biological target: T8, MBP-Orf R103E (Bacteriophage lambda) (UniProt P03765); test: EMSA; conditions: 250 nM, EMSA: 50 mM Tris-HCl pH 8.0, 5 mM EDTA (or 1 mM MgCl2), 1 mM DTT, 5% glycerol, 100 ug/ml BSA, on ice 15 min, 4% PAGE, recombinant protein, residues 1-146, protein details: N-terminal MBP, label: 5'-32P on strand 1
T8 sequence (looked up): T2 sequence (looked up) with A50W, R103E

[10] = 5 mM EDTA, no marked improvement with bubble, label: 5'-32P on strand 1, folded or branched DNA
[11] = 1 mM MgCl2, label: 5'-32P, single-stranded DNA
[12] = 5 mM EDTA, severe defect, label: 5'-32P, single-stranded DNA
[13] = 5 mM EDTA, label: 5'-32P on strand 1
[14] = 5 mM EDTA, no preference over DS60, label: 5'-32P on strand 1, folded or branched DNA
[15] = 250 nM, similarly poor binding, label: 5'-32P on strand 1, folded or branched DNA
[16] = 250 nM, little or no association, label: 5'-32P on strand 1

“TTTGGTCTAACTTTACCGCTACTAAATGCCGCGGATTGGTTTCGCTGAATCAGGTTATTA / TAATAACCTGATTCAGCGAAACATTGTAGGTAAGCTTAGTAGCGGTAAAGTTAGACCAAA [BB13]”: binds [1, 10].

“GGCGACGTGATCACCAGATGATTGCTAGGCATGCTTTCCGCAAGAGAAGC [SS50]”: binds more weakly ([2]; 5 mM EDTA, bound only weakly, label: 5'-32P, single-stranded DNA); binds more weakly [3, 11]; binds more weakly [4, 12]. “GGCGACGTGATCACCAGATGATTGCTAGGCATGCTTTCCGCAAGAGAAGC [SS50]”: binds more weakly ([5]; 5 mM EDTA, minor defect, label: 5'-32P, single-stranded DNA); binds more weakly [1, 11]; binds more weakly [6, 12]. “GGCGACGTGATCACCAGATGATTGCTAGGCATGCTTTCCGCAAGAGAAGC [SS50]”: binds more weakly ([7]; 5 mM EDTA, slight reduction, 4% PAGE, label: 5'-32P, single-stranded DNA).

“TTTGGTCTAACTTTACCGCTACTAAATGCCGCGGATTGGTTTCGCTGAATCAGGTTATTA / TAATAACCTGATTCAGCGAAACCAATCGCAACCATTTAGTAGCGGTAAAGTTAGACCAAA [BB5]”: binds [1, 10].

“TTTGGTCTAACTTTACCGCTACTAAATGCCGCGGATTGGTTTCGCTGAATCAGGTTATTA / TAATAACCTGATTCAGCGAAACCAATCTGCGGCATTTAGTAGCGGTAAAGTTAGACCAAA [MMT:G-fluorescein]”: binds [8].

“TTTGGTCTAACTTTACCGCTACTAAATGCCGCGGATTGGTTTCGCTGAATCAGGTTATTA / TAATAACCTGATTCAGCGAAACCAATCGGCGGCATTTAGTAGCGGTAAAGTTAGACCAAA [MMG:G]”: binds more weakly ([3]; 5 mM EDTA, same as DS60, label: 5'-32P on strand 1).

“GGCGACGTGATCACCAGATGATTGCTAGGCATGCTTTCCGCAAGAGAAGC (double strand) [DS50]”: binds more weakly [3, 13]; binds more weakly [1, 13].

“TTTGGTCTAACTTTACCGCTACTAAATGCCGCGGATTGGTTTCGCTGAATCAGGTTATTA / TAATAACCTGATTCAGCGAAACCAATCCAAAGCGGCATTTAGTAGCGGTAAAGTTAGACCAAA [BT3]”: binds more weakly [3, 14]; binds [1, 14].

“TTTGGTCTAACTTTACCGCTACTAAATGCCGCGGATTGGTTTCGCTGAATCAGGTTATTA / TAATAACCTGATTCAGCGAATGACCGATAACGTCCACTTGAGCGGTAAAGTTAGACCAAA [BB20]”: binds more weakly [2, 15]; binds more weakly [4, 15]; binds more weakly ([5]; 250 nM, complex stability significantly reduced, label: 5'-32P on strand 1, folded or branched DNA). “TTTGGTCTAACTTTACCGCTACTAAATGCCGCGGATTGGTTTCGCTGAATCAGGTTATTA / TAATAACCTGATTCAGCGAATGACCGATAACGTCCACTTGAGCGGTAAAGTTAGACCAAA [BB20]”: binds [1, 10]; binds more weakly ([6]; 250 nM, small proportion, faster-migrating complex, label: 5'-32P on strand 1, folded or branched DNA); binds more weakly ([7]; 250 nM, complex stability slightly reduced, 4% …, label: 5'-32P on strand 1, folded or branched DNA). “TTTGGTCTAACTTTACCGCTACTAAATGCCGCGGATTGGTTTCGCTGAATCAGGTTATTA / TAATAACCTGATTCAGCGAATGACCGATAACGTCCACTTGAGCGGTAAAGTTAGACCAAA [BB20]”: binds more weakly ([9]; similarly poor binding, folded or branched DNA).

“TTTGGTCTAACTTTACCGCTACTAAATGCCGCGGATTGGTTTCGCTGAATCAGGTTATTA / TAATAACCTGATTCAGCGAAACCAATCCAAGCGGCATTTAGTAGCGGTAAAGTTAGACCAAA [BT2]”: binds more weakly [3, 14]; binds [1, 14].

“TTTGGTCTAACTTTACCGCTACTAAATGCCGCGGATTGGTTTCGCTGAATCAGGTTATTA (double strand) [DS60]”: no binding [2, 16]; binds more weakly [3, 13]; no binding [4, 16]. “TTTGGTCTAACTTTACCGCTACTAAATGCCGCGGATTGGTTTCGCTGAATCAGGTTATTA (double strand) [DS60]”: binds more weakly ([5]; 250 nM, less extreme defect, label: 5'-32P on strand 1); no binding [6, 16]; binds more weakly ([7]; 250 nM, less extreme defect, 4% PAGE, label: 5'-32P on strand 1). “TTTGGTCTAACTTTACCGCTACTAAATGCCGCGGATTGGTTTCGCTGAATCAGGTTATTA (double strand) [DS60]”: no binding ([9]; little or no association).

“TTTGGTCTAACTTTACCGCTACTAAATGCCGCGGATTGGTTTCGCTGAATCAGGTTATTA / TAATAACCTGATTCAGCGAAACCAATCCAGCGGCATTTAGTAGCGGTAAAGTTAGACCAAA [BT1]”: binds more weakly [3, 14]; binds [1, 14].
